In article doi:10.1101/772400:
No constants are given. Whether binding was seen depends on the method and setting. For some of these results: Binding seen in cells or lysates may run through a third protein. Some results given as binding are weak or reduced against the parent protein; the word gives no strength. For some of these results: Sequences can lack the tags named with a protein.

How the values were obtained:
[1] = biological target: T1, RETINOBLASTOMA RELATED (RBR), LexA two-hybrid bait (Arabidopsis (accession Col-0)) (UniProt Q9LKZ3); experiment: two-hybrid
T1 sequence: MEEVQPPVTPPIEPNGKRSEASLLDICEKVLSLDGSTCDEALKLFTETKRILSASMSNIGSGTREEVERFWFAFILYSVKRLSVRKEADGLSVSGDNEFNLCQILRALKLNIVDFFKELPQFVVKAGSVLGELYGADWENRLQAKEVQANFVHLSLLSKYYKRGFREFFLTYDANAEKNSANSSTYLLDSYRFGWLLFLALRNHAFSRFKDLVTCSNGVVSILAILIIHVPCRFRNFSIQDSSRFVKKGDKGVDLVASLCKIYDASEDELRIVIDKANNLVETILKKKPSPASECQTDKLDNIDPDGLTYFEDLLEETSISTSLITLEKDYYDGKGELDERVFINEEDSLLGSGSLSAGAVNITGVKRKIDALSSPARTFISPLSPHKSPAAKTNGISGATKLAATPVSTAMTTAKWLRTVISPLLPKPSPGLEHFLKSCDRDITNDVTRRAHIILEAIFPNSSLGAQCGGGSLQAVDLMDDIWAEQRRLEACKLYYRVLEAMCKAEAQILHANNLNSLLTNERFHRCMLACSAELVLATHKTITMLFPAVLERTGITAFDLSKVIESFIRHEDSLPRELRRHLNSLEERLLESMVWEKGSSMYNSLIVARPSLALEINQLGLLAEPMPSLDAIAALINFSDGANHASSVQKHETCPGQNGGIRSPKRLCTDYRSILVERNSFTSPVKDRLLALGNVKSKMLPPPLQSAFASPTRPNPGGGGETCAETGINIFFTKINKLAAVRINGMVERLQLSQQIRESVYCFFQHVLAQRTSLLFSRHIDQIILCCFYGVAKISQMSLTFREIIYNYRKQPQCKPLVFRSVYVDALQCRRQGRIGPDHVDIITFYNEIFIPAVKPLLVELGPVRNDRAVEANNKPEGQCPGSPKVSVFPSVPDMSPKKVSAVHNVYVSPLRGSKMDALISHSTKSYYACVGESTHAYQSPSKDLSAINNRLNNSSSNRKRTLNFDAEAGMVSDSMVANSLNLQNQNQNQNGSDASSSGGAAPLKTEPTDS

[2] = biological target: T2, C-Ven-RBR (RETINOBLASTOMA RELATED fused to C-Venus for BiFC) (Arabidopsis (accession Col-0)) (UniProt Q9LKZ3); experiment: split reporter
T2 sequence: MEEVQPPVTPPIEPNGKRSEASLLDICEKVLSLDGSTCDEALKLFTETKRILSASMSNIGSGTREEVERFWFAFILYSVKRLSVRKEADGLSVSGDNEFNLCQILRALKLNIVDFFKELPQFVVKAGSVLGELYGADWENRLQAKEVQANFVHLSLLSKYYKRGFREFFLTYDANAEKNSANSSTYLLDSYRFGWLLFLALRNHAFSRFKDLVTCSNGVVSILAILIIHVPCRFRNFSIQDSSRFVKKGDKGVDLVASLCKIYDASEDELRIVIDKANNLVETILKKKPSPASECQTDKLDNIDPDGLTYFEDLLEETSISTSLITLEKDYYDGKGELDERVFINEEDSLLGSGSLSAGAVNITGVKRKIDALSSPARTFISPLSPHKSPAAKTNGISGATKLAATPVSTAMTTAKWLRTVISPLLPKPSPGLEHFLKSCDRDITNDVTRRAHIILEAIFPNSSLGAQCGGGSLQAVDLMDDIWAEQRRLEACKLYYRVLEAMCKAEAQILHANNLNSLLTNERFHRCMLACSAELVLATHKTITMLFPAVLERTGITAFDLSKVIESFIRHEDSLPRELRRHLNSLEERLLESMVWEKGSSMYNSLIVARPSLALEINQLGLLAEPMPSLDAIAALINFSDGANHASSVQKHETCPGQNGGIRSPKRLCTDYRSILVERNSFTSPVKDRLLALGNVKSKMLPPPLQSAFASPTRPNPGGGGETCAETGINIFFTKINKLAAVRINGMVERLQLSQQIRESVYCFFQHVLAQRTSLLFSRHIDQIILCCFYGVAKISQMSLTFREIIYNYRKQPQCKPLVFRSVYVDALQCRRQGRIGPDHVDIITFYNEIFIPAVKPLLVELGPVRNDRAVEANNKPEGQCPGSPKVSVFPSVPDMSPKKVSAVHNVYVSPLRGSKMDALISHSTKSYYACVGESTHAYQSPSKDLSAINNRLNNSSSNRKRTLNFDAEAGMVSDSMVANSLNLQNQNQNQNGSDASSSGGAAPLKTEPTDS

B1: RKD1 (RWP-RK domain-containing 1), two-hybrid prey (protein, UniProt Q9M9U9 1-269)
chain: MKSFCKLEYDQVFGKENNSFSFLNHSSLYSHQSELANPFFELEDEMLPSATSSNCFTSASSFLALPDLEPISIVSHEADILSVYGSASWTAEETMFVSDFAKKSETTTTKKRRCREECFSSCSVSKTLSKETISLYFYMPITQAARELNIGLTLLKKRCRELGIKRWPHRKLMSLQKLISNVKELEKMEGEENEDKLRNALEKLEKEKKTIEKLPDLKFEDKTKRLRQACFKANHKRKRRSGMSTPITSSSSSASASSSSYSSVSGFER
- binding [1]: binds

B2: N-Ven-LEC1 (BiFC fusion) (protein, UniProt Q9SFD8 1-238)
chain: MERGAPFSHYQLPKSISELNLDQHSNNPTPMTSSVVVAGAGDKNNGIVVQQQPPCVAREQDQYMPIANVIRIMRKTLPSHAKISDDAKETIQECVSEYISFVTGEANERCQREQRKTITAEDILWAMSKLGFDNYVDPLTVFINRYREIETDRGSALRGEPPSLRQTYGGNGIGFHGPSHGLPPPGPYGYGMLDQSMVMGGGRYYQNGSSGQDESSVGGGSSSSINGMPAFDHYGQYK
- binding [2]: binds weakly

B3: LEAFY COTYLEDON1 (LEC1), two-hybrid prey (protein, UniProt Q9SFD8 1-238)
chain: MERGAPFSHYQLPKSISELNLDQHSNNPTPMTSSVVVAGAGDKNNGIVVQQQPPCVAREQDQYMPIANVIRIMRKTLPSHAKISDDAKETIQECVSEYISFVTGEANERCQREQRKTITAEDILWAMSKLGFDNYVDPLTVFINRYREIETDRGSALRGEPPSLRQTYGGNGIGFHGPSHGLPPPGPYGYGMLDQSMVMGGGRYYQNGSSGQDESSVGGGSSSSINGMPAFDHYGQYK
- binding [1]: binds

B4: RKD2 (RWP-RK domain-containing 2), two-hybrid prey (protein, UniProt Q9CA66 1-298)
chain: MADHTTKEQKSFSFLAHSPSFDHSSLSYPLFDWEEDLLALQENSGSQAFPFTTTSLPLPDLEPLSEDVLNSYSSASWNETEQNRGDGASSEKKRENGTVKETTKKRKINERHREHSVRIISDITTYTTSSAPTTLSKETVSRYFYMPITQAAIALNVGLTLLKRRCRELGIRRWPHRKLMSLNTLISNVKELQKMEGEENAEKLQDALEMLEKEKRTIEDLPDLEFKDKTKRLRQACFKANHKRKKKRSLKSDQSQVPSCSSSGSVPSDESVDEAGMESDEEMKYLLCGFSSEFTSGL
- binding [1]: binds
